These are yes or no findings as the source states them, for the method shown. Some binding calls cover weakened binding; strength is not graded here. For some assays here: Tags and fused reporters may be left off the sequences shown.
Legend:
[1] = biological target: human CD95 (endogenous receptor of T cells and HEK cells) (human) (UniProt P25445); assay: CD95 immunoprecipitation from CEM cells stimulated with CD95L, immunoblot
[2] = biological target: human CD95 (endogenous receptor of T cells and HEK cells) (human) (UniProt P25445); assay: CD95 immunoprecipitation from stimulated T cells, immunoblot
[3] = biological target: T1, GFP-fused CD95^1-210 (human, UniProt P25445 17-226); assay: CD95 immunoprecipitation from HEK cells co-transfected with GFP-fused CD95 constructs and PLCγ1, stimulated with CD95L, immunoblot
T1 construct: also called CD95 construct devoid of DD; not shown: GFP of vector pEGFP-N1 (Clontech), fused C-terminally
T1 sequence: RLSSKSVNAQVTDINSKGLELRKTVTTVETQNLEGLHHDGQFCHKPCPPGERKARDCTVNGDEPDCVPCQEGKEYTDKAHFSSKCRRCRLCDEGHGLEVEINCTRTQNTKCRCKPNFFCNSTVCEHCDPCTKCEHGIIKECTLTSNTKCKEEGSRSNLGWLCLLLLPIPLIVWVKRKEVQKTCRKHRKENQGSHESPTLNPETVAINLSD

[4] = biological target: GFP-fused CD95^1-303 (human) (UniProt P25445); assay: as above
[5] = biological target: GFP-fused wild type human CD95 (human) (UniProt P25445); assay: as above

Binder | binding [1] | binding [2] | binding [3] | binding [4] | binding [5]
phospholipase Cγ1 (PLCγ1), endogenous in human T cells (enzyme, UniProt P19174 2-1290, looked up) AGAASPCANGCGPGAPSDAEVLHLCRSLEVGTVMTLFYSKKSQRPERKTFQVKLETRQITWSRGADKIEGAIDIREIKEIRPGKTSRDFDRYQEDPAFRPDQSHCFVILYGMEFRLKTLSLQATSEDEVNMWIKGLTWLMEDTLQAPTPLQIERWLRKQFYSVDRNREDRISAKDLKNMLSQVNYRVPNMRFLRERLTDLEQRSGDITYGQFAQLYRSLMYSAQKTMDLPFLEASTLRAGERPELCRVSLPEFQQFLLDYQGELWAVDRLQVQEFMLSFLRDPLREIEEPYFFLDEFVTFLFSKENSVWNSQLDAVCPDTMNNPLSHYWISSSHNTYLTGDQFSSESSLEAYARCLRMGCRCIELDCWDGPDGMPVIYHGHTLTTKIKFSDVLHTIKEHAFVASEYPVILSIEDHCSIAQQRNMAQYFKKVLGDTLLTKPVEISADGLPSPNQLKRKILIKHKKLAEGSAYEEVPTSMMYSENDISNSIKNGILYLEDPVNHEWYPHYFVLTSSKIYYSEETSSDQGNEDEEEPKEVSSSTELHSNEKWFHGKLGAGRDGRHIAERLLTEYCIETGAPDGSFLVRESETFVGDYTLSFWRNGKVQHCRIHSRQDAGTPKFFLTDNLVFDSLYDLITHYQQVPLRCNEFEMRLSEPVPQTNAHESKEWYHASLTRAQAEHMLMRVPRDGAFLVRKRNEPNSYAISFRAEGKIKHCRVQQEGQTVMLGNSEFDSLVDLISYYEKHPLYRKMKLRYPINEEALEKIGTAEPDYGALYEGRNPGFYVEANPMPTFKCAVKALFDYKAQREDELTFIKSAIIQNVEKQEGGWWRGDYGGKKQLWFPSNYVEEMVNPVALEPEREHLDENSPLGDLLRGVLDVPACQIAIRPEGKNNRLFVFSISMASVAHWSLDVAADSQEELQDWVKKIREVAQTADARLTEGKIMERRKKIALELSELVVYCRPVPFDEEKIGTERACYRDMSSFPETKAEKYVNKAKGKKFLQYNRLQLSRIYPKGQRLDSSNYDPLPMWICGSQLVALNFQTPDKPMQMNQALFMTGRHCGYVLQPSTMRDEAFDPFDKSSLRGLEPCAISIEVLGARHLPKNGRGIVCPFVEIEVAGAEYDSTKQKTEFVVDNGLNPVWPAKPFHFQISNPEFAFLRFVVYEEDMFSDQNFLAQATFPVKGLKTGYRAVPLKNNYSEDLELASLLIKIDIFPAKENGDLSPFSGTSLRERGSDASGQLFHGRAREGSFESRYQQPFEDFRISQEHLADHFDSRERRAPRRTRVNGDNRL | binds | binds | – | – | –
Myc-tagged full-length human PLCγ1 (enzyme, UniProt P19174 1-1290, looked up, not shown: small tags and cut ends) MAGAASPCANGCGPGAPSDAEVLHLCRSLEVGTVMTLFYSKKSQRPERKTFQVKLETRQITWSRGADKIEGAIDIREIKEIRPGKTSRDFDRYQEDPAFRPDQSHCFVILYGMEFRLKTLSLQATSEDEVNMWIKGLTWLMEDTLQAPTPLQIERWLRKQFYSVDRNREDRISAKDLKNMLSQVNYRVPNMRFLRERLTDLEQRSGDITYGQFAQLYRSLMYSAQKTMDLPFLEASTLRAGERPELCRVSLPEFQQFLLDYQGELWAVDRLQVQEFMLSFLRDPLREIEEPYFFLDEFVTFLFSKENSVWNSQLDAVCPDTMNNPLSHYWISSSHNTYLTGDQFSSESSLEAYARCLRMGCRCIELDCWDGPDGMPVIYHGHTLTTKIKFSDVLHTIKEHAFVASEYPVILSIEDHCSIAQQRNMAQYFKKVLGDTLLTKPVEISADGLPSPNQLKRKILIKHKKLAEGSAYEEVPTSMMYSENDISNSIKNGILYLEDPVNHEWYPHYFVLTSSKIYYSEETSSDQGNEDEEEPKEVSSSTELHSNEKWFHGKLGAGRDGRHIAERLLTEYCIETGAPDGSFLVRESETFVGDYTLSFWRNGKVQHCRIHSRQDAGTPKFFLTDNLVFDSLYDLITHYQQVPLRCNEFEMRLSEPVPQTNAHESKEWYHASLTRAQAEHMLMRVPRDGAFLVRKRNEPNSYAISFRAEGKIKHCRVQQEGQTVMLGNSEFDSLVDLISYYEKHPLYRKMKLRYPINEEALEKIGTAEPDYGALYEGRNPGFYVEANPMPTFKCAVKALFDYKAQREDELTFIKSAIIQNVEKQEGGWWRGDYGGKKQLWFPSNYVEEMVNPVALEPEREHLDENSPLGDLLRGVLDVPACQIAIRPEGKNNRLFVFSISMASVAHWSLDVAADSQEELQDWVKKIREVAQTADARLTEGKIMERRKKIALELSELVVYCRPVPFDEEKIGTERACYRDMSSFPETKAEKYVNKAKGKKFLQYNRLQLSRIYPKGQRLDSSNYDPLPMWICGSQLVALNFQTPDKPMQMNQALFMTGRHCGYVLQPSTMRDEAFDPFDKSSLRGLEPCAISIEVLGARHLPKNGRGIVCPFVEIEVAGAEYDSTKQKTEFVVDNGLNPVWPAKPFHFQISNPEFAFLRFVVYEEDMFSDQNFLAQATFPVKGLKTGYRAVPLKNNYSEDLELASLLIKIDIFPAKENGDLSPFSGTSLRERGSDASGQLFHGRAREGSFESRYQQPFEDFRISQEHLADHFDSRERRAPRRTRVNGDNRL | – | – | binds | binds | binds
